The results in this text go back to the supplement of paper PMC10849652.

Chains of the proteins cited; added tags and fusions are not shown. Lines headed by an entry give the natural chain unless they say otherwise; changes in a name come on top.
UniProt Q86SF2: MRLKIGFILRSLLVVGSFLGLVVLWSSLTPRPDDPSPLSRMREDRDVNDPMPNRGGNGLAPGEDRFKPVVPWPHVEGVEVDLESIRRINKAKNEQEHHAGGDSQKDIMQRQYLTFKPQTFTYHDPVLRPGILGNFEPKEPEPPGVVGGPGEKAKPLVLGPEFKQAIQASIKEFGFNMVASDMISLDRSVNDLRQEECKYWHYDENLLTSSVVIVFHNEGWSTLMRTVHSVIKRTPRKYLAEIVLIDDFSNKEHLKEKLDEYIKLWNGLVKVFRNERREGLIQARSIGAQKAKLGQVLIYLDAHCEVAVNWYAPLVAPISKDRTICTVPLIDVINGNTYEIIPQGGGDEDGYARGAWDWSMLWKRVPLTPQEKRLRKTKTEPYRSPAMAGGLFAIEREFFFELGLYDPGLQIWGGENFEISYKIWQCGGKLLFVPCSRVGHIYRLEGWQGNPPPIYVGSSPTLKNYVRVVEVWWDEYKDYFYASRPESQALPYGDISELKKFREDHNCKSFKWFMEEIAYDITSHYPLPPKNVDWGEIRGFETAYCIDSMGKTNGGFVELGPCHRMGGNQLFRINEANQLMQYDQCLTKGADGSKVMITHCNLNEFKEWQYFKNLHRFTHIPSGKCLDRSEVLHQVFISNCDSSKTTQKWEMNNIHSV
UniProt Q14697: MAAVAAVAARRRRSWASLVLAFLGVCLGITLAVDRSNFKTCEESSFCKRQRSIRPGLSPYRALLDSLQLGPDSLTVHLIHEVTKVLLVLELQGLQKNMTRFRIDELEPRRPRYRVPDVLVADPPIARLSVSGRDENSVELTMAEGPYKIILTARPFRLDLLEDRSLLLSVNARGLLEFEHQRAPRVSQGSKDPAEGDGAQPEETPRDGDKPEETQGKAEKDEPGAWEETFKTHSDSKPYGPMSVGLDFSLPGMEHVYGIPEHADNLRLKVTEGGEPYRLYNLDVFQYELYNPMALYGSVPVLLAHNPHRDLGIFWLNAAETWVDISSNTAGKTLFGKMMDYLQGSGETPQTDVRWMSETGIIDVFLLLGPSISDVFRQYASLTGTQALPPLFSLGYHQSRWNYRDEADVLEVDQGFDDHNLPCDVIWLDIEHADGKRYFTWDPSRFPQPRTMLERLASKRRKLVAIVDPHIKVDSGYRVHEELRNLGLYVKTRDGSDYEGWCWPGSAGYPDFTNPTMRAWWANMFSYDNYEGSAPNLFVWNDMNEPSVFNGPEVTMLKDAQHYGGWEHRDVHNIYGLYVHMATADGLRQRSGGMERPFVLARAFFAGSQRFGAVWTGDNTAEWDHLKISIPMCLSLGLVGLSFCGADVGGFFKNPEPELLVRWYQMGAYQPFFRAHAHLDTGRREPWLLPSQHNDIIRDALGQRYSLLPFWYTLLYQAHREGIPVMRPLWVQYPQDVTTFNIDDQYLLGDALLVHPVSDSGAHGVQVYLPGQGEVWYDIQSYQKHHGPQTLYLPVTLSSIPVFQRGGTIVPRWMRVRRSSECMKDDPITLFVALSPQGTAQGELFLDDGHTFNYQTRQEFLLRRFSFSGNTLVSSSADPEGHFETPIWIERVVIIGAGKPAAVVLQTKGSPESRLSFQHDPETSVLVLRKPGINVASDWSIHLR
UniProt Q9UN86: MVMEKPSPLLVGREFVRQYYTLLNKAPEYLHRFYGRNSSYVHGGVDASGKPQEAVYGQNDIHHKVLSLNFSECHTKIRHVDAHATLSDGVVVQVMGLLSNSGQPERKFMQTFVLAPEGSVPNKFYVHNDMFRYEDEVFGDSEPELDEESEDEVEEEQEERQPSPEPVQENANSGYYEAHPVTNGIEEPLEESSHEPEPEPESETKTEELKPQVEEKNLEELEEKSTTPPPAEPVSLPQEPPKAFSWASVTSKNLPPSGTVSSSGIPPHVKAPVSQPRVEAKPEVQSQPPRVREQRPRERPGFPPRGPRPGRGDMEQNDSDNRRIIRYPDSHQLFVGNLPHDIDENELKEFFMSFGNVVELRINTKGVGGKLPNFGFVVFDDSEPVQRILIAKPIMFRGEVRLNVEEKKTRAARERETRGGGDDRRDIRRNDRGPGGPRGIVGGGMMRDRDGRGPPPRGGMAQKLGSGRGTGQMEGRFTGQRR
UniProt P04066: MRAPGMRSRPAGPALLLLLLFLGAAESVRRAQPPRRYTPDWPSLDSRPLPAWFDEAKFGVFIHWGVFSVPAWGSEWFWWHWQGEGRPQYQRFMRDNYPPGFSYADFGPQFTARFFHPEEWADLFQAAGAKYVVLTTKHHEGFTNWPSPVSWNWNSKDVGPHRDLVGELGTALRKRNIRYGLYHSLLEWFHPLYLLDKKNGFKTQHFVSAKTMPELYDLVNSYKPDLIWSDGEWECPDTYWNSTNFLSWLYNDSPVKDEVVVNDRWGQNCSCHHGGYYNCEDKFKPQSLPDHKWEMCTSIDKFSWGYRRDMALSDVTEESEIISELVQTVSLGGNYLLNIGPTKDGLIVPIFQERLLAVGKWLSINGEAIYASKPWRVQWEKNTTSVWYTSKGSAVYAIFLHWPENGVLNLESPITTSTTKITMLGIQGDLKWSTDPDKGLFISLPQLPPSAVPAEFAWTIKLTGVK
UniProt Q8WXI9: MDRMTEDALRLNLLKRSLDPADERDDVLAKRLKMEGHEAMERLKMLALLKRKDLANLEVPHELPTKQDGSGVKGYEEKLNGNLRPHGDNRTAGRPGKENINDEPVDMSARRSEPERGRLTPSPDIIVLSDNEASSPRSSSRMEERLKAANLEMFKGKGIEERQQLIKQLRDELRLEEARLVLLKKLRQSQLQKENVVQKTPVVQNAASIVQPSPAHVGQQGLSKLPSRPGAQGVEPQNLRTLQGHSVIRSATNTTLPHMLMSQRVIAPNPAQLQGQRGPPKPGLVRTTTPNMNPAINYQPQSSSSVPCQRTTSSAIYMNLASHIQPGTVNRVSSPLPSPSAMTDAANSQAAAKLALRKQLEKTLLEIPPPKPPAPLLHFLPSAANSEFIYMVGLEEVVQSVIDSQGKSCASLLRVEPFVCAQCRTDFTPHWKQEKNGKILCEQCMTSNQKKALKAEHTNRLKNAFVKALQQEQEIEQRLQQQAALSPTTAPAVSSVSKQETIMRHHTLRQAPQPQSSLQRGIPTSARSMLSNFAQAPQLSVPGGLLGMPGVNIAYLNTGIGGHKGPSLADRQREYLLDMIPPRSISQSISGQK
UniProt O14772: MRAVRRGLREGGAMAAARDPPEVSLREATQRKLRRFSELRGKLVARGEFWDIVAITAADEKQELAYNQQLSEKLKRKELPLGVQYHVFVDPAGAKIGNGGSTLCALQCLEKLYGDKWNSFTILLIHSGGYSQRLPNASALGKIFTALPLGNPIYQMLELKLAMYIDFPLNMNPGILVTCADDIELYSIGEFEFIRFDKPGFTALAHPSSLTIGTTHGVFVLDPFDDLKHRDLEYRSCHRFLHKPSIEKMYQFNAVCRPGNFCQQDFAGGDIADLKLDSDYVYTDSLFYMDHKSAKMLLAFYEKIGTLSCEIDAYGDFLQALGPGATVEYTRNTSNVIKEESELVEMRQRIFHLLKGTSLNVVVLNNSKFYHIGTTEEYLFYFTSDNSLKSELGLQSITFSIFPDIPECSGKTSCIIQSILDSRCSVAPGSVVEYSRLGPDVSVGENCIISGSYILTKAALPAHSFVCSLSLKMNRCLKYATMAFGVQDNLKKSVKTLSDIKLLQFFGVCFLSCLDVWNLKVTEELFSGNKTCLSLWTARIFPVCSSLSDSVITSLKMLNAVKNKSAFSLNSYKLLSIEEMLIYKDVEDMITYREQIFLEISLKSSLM
UniProt Q96C23: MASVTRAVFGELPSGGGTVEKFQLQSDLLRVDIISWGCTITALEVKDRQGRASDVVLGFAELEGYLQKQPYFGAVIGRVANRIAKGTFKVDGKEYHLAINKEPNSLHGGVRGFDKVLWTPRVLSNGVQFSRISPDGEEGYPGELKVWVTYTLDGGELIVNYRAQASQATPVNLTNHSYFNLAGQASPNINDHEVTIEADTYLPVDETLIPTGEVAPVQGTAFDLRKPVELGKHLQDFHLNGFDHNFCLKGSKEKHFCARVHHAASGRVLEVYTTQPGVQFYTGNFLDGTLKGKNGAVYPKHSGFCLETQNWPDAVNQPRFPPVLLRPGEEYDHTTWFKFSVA
UniProt Q10472: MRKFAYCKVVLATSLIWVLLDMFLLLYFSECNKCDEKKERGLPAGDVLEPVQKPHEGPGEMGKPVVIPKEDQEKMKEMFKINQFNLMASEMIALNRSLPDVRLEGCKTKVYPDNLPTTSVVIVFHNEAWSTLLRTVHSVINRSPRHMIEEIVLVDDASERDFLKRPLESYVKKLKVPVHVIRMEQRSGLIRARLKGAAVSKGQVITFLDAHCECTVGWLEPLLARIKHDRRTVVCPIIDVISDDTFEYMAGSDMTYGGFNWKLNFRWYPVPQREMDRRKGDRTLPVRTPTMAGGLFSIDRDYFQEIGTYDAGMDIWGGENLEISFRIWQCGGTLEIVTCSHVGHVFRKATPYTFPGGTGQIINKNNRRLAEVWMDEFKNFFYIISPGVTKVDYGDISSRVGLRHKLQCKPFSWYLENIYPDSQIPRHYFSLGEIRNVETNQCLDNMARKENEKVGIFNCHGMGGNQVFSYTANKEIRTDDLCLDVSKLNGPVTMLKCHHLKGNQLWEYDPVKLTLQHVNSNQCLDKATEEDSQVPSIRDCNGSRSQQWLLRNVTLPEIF
UniProt P55789: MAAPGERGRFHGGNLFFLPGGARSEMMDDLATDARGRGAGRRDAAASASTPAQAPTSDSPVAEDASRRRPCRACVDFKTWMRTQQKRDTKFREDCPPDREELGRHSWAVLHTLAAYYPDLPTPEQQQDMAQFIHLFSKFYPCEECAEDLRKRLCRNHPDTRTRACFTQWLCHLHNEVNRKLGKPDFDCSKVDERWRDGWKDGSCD
UniProt Q06210: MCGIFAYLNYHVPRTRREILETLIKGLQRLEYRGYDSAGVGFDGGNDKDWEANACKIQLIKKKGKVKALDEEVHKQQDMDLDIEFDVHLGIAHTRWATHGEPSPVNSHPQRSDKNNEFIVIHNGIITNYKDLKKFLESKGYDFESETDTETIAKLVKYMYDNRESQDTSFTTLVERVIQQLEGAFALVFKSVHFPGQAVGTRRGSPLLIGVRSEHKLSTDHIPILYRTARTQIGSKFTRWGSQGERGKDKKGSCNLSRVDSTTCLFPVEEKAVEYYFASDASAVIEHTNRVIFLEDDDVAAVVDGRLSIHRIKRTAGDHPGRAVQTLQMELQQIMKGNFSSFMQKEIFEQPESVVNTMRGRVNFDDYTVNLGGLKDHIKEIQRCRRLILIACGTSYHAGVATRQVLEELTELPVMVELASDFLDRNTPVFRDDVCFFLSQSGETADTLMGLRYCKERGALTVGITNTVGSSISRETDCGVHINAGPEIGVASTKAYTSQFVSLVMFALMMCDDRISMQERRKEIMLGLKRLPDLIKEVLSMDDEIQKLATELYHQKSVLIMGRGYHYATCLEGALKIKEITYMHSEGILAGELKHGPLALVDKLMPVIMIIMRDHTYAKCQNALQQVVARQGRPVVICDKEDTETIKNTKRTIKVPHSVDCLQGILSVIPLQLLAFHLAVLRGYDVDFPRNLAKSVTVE
UniProt O15117, whole entry, looked up: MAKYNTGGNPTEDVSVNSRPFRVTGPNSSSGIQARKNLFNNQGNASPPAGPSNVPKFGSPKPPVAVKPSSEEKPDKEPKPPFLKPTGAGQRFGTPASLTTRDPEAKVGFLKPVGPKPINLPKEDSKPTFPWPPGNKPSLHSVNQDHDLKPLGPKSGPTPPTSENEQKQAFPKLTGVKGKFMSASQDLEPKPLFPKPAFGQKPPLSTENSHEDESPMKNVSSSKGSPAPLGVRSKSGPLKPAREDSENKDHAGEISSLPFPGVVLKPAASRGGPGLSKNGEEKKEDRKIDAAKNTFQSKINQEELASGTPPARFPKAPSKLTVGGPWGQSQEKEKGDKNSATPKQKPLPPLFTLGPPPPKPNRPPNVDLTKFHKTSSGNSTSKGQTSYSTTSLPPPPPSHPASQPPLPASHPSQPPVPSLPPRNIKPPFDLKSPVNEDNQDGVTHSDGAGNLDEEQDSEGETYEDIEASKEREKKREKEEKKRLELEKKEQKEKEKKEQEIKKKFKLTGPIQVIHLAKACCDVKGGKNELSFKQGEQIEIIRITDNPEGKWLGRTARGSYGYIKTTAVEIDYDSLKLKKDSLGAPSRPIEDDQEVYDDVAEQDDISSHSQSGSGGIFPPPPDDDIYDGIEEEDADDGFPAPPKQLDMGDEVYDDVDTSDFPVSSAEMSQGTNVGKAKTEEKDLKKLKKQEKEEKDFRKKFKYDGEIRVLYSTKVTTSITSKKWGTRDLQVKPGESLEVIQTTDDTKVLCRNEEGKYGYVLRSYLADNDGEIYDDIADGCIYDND
UniProt Q8WXD5: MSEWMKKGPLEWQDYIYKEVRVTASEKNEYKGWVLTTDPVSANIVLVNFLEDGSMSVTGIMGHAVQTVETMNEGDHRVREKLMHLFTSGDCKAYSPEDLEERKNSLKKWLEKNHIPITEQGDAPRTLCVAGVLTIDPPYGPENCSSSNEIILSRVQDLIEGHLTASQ

The list shows a part of the results.

Compound in the experiment: C1=CC=C2C(=C1)C3=NNC4=CC=CC(=C43)C2=O
Put plainly: log2 fold change, soluble protein after heating vs DMSO (PISA); higher = thermal stabilisation; K562 lysate, 10 uM; active = over 0.2 and 3.5 SD of the protein, either way, in both replicates (recomputed). In a few lines: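 Values give the log-two fold change in thermal stability against solvent controls, from duplicates. Crude K562 extract at 1 mg/mL protein, made by dounce homogenisation in PBS pH 7.4 with 1 mM MgCl2, was treated with 10 μM compound for 30 min. After 3 min heating across 48°C-58°C, aliquots were pooled, adjusted to 0.5% NP-40 at 4°C and centrifuged at 21,000xg for 90 min. The supernatant was measured by TMTpro 16plex LC-MS/MS with channel sums equalised.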
As for FTSJ1 (UniProt Q9UET6), the log2 fold change is inactive: 0.034.

Turning to GCC2 (UniProt Q8IWJ2), the log2 fold change was inactive: -0.02. For GALNT7 (UniProt Q86SF2), the log2 fold change was inactive: -0.015. With GEMIN2 (UniProt O14893) the figure was inactive: -0.11.

Take GANAB isoform 2 (UniProt Q14697): the log2 fold change is inactive: -0.019. With GALNT5 (UniProt Q7Z7M9), the log2 fold change was inactive: -0.045. For GALNT2 (UniProt Q10471), the log2 fold change is inactive: -0.056. Under G3BP2 (UniProt Q9UN86) stands inactive: -0.041.

As to GBA (UniProt P04062), the log2 fold change is inactive: -0.016. As to FUCA1 (UniProt P04066), the log2 fold change is inactive: -0.001. Under GATAD2B (UniProt Q8WXI9) stands inactive: -0.055; under FREM2 (UniProt Q5SZK8), inactive: -0.051. With FRRS1 (UniProt Q6ZNA5), the log2 fold change is inactive: -0.021. Consider GCC1 (UniProt Q96CN9), for which the log2 fold change is inactive: -0.043.

For the target FXN (UniProt Q16595), the log2 fold change is inactive: -0.029. Consider GABPB1 (UniProt Q06547), for which the log2 fold change was inactive: -0.009.

On to FPGT (UniProt O14772), for which the log2 fold change is inactive: -0.108. On to GALM (UniProt Q96C23), for which the log2 fold change is inactive: -0.01.

As to GALNT1 (UniProt Q10472), the log2 fold change was inactive: -0.103. Regarding GAPDH (UniProt P04406), the log2 fold change was inactive: 0.028. In the case of GFER (UniProt P55789), the log2 fold change was inactive: 0.01. On to GFPT1 (UniProt Q06210), for which the log2 fold change was inactive: -0.014.

For GART (UniProt P22102), the log2 fold change was inactive: -0.011. On to GALNT12 (UniProt Q8IXK2), for which the log2 fold change was inactive: -0.214. With GFM1 (UniProt Q96RP9) the figure was inactive: 0.035; with FYB1 isoform 3 (UniProt O15117), inactive: -0.025; with GABARAP (UniProt O95166), inactive: -0.033. For the target GCSH (UniProt P23434), the log2 fold change was inactive: 0.044. Take GARS1 (UniProt P41250): the log2 fold change was inactive: 0.016. As to GEMIN6 (UniProt Q8WXD5), the log2 fold change was inactive: -0.017. GALNS (UniProt P34059): the log2 fold change was inactive: -0.02. As to GALE (UniProt Q14376), the log2 fold change is inactive: -0.061. For FSCN1 (UniProt Q16658), the log2 fold change was inactive: 0.037.
